Fewer than 10 of roughly 6,900 compounds were called active. Calls follow the shape of the dose curve; as a rule, active = well fitted curve in the direction sought with a large enough effect; inconclusive = small, poorly fitted or top-dose-only effect, or another doubt; inactive = no such curve, though single readings can be large or run the other way. The list shows a part of the results.
biological target: Metallo-beta-lactamase type 2 (Klebsiella pneumoniae) (UniProt C7C422); experiment: qHTS to identify inhibitors of the New Delhi Metallo-beta-lactamase (NDM): primary screen against the NCATS Gemini Collection; settings: NDM-1 enzyme, meropenem hydrolysis, absorbance 300 nm; at 38.4 µM (top of the series) unless noted; also: % of control where 0% means no effect
Outline: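 NDM-1 at 2 nM final in 50 mM HEPES pH 7.0, 1 uM ZnSO4, 0.01% Tween20, preincubated >30 min with compound. Meropenem 50 uM final added; absorbance at 300 nm after 30 min.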

Chains of the proteins cited; added tags and fusions are not shown. Lines headed by an entry give the natural chain unless they say otherwise; changes in a name come on top.
UniProt C7C422: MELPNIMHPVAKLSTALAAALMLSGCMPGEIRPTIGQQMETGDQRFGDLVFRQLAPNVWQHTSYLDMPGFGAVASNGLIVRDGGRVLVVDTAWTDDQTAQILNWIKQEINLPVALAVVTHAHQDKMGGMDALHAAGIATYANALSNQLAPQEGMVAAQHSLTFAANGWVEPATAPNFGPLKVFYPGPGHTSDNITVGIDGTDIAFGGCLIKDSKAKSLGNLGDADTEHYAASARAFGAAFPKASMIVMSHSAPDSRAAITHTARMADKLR

Compound	activity % (negative = inhibition)
O=C(c1cc[n+]([O-])cc1)N1CCC2(CCCN(CCC3CCCCC3)C2)C1 (stereo not drawn)	inactive: 6.2%
Cc1ccsc1CN1CCc2[nH]nc(C(=O)N(C)C)c2C1	inactive: 4.25%
C[C@@H]1CN(C(=O)c2cc(S(N)(=O)=O)ccc2F)CC[C@]1(C)O	inactive: 4.6%
CCNC(=O)N1CC(C(=O)NCc2cccc(C)c2)CC(c2ccc(F)c(C)c2)C1 (stereo not drawn)	inactive: -1.97%
CC(C)C(=O)N1CCC(c2nc(-c3cccnn3)no2)CC1	inactive: 0.573%
CN1CCCn2nc(C(=O)N(C)Cc3nc4ccc(Cl)cc4[nH]3)cc2C1	inactive: -2.64%
CS(=O)(=O)N1CCC2(CC1)CN(C(=O)c1ccc(N)nc1)Cc1ccccc1O2	inactive: 16.7%
COCC1CN(Cc2c(C)n[nH]c2C)CC12CCNCC2 (stereo not drawn)	inactive: -1.59%
CC(=O)N1CCC(NCc2cccnc2Oc2ccccc2C)CC1	inactive: -8.39%
CCc1nc(-c2c3n(c(=O)n(CC(=O)Nc4cccc(C)c4)c2=O)CCCCC3)no1	inactive: -1.67%
COCCOCC(=O)N1CCC(N2C(=O)CCC2C(=O)NCc2ccccc2)CC1 (stereo not drawn)	inactive: 11.3%
CC(C)c1noc(-c2cn(C3CCN(C(=O)c4ccc5ccccc5n4)C3)nn2)n1 (stereo not drawn)	inactive: 4.62%
CS(=O)(=O)NC[C@H]1Cn2ccnc2CO1	inactive: -0.563% [at 77.1 µM]
Cc1ccc(C2=NC3(CCN(C(=O)c4n[nH]c5c4CCCC5)CC3)ON2)cc1	inactive: 58.1%
CCOC(=O)N1CCN(Cc2nccn2CCOC)CC1	inactive: -1.12%
O=C1NC2(CCN(CC3CCCCC3)CC2)COc2ccccc21	inactive: 2.33% [at 57.5 µM]
CCCCc1ccc(CN2C[C@@H]3CC[C@H](C2)N(Cc2ccccn2)C3=O)s1	inactive: 38.8%
CCC(CC)C(=O)NCc1cccnc1Oc1cccc(C(F)(F)F)c1	inactive: -3.8%
CCn1c(=O)c2ccnn2c2ccc(C(=O)O)cc21	inactive: 4.34%
FC(F)(F)c1ccc(-c2noc([C@@H]3Cc4nc[nH]c4CN3Cc3cc4ccccc4o3)n2)cc1	inactive: 38.7%
COc1ccc(-c2cc(C[C@H]3CNCC[C@H]3CC(=O)N3CCOCC3)no2)cc1	inactive: -1.43% [at 57.5 µM]
CCS(=O)(=O)Nc1ccc(C(=O)NCc2cc3n(n2)CCNC3)cc1	inactive: -1.65%

As entered above.
activity % (negative = inhibition), `COCC1CN(Cc2c(C)n[nH]c2C)CC12CCNCC2` (stereo not drawn) reads inactive: -1.59%
activity % (negative = inhibition), `C[C@@H]1CN(C(=O)c2cc(S(N)(=O)=O)ccc2F)CC[C@]1(C)O` reads inactive: 4.6%
activity % (negative = inhibition), `CN1CCCn2nc(C(=O)N(C)Cc3nc4ccc(Cl)cc4[nH]3)cc2C1` reads inactive: -2.64%
activity % (negative = inhibition), `CS(=O)(=O)N1CCC2(CC1)CN(C(=O)c1ccc(N)nc1)Cc1ccccc1O2` reads inactive: 16.7%
activity % (negative = inhibition), `CCn1c(=O)c2ccnn2c2ccc(C(=O)O)cc21` reads inactive: 4.34%
activity % (negative = inhibition), `CC(C)c1noc(-c2cn(C3CCN(C(=O)c4ccc5ccccc5n4)C3)nn2)n1` (stereo not drawn) reads inactive: 4.62%
activity % (negative = inhibition), `O=C(c1cc[n+]([O-])cc1)N1CCC2(CCCN(CCC3CCCCC3)C2)C1` (stereo not drawn) reads inactive: 6.2%

The list continues:

Compound	activity % (negative = inhibition)
COc1cc(F)ccc1-c1cc(-c2ccc(=O)[nH]c2)c2cncn2c1	inactive: 40.2% [at 57.5 µM]
Cc1nc(C2CC(O)C2)cc(N2CCN(c3cnn(C)c(=O)c3)CC2)n1 (stereo not drawn)	inactive: 9.96%
O=C(c1c(OCC2CC2)cc(=O)n2c1CCOCC2)N1CCc2ccccc2C1	inactive: 12%
CCCNC(=O)NCC1c2cc(OC)c(OC)cc2CCN1C(=O)NCC (stereo not drawn)	inactive: 0.348%
COCC1CN(C)CC12CCN(Cc1sccc1C)CC2 (stereo not drawn)	inactive: -2.49%
CN(C)[C@@H]1CO[C@H](CNC(=O)c2ccncc2)[C@H]1O	inactive: -3.86% [at 77.1 µM]
CN(C)S(=O)(=O)N1CCCC(c2nc(-c3ccccc3)no2)CCNC(=O)CC1 (stereo not drawn)	inactive: 1.56%
COC(=O)c1nc(NC(=O)Cn2nc3c(cc2=O)CCCC3)sc1C(C)C	inactive: 17.5%
O=C(NC1CCOC2(CCOCC2)C1)c1ccc(-c2cnco2)cc1 (stereo not drawn)	inactive: 19.1%
Cc1ccn(CC(=O)NCc2cccnc2Oc2ccccc2)n1	inactive: 0.635%
CC1(C)[C@H]2CC[C@@H](CNC(=O)C3CC3)[C@@H]1C2	inactive: -2.25% [at 77.1 µM]
O=C(Cn1nc2n(c1=O)CCCC2)NCc1ccc(F)cc1	inactive: 10.2%
O=C(Cn1nc2n(c1=O)CCCC2)NCCc1ccc(Cl)cc1	inactive: 4.64%
Cc1cc(C(=O)N2CCOC(Cc3cccc(C(F)(F)F)c3)C2)nn1C (stereo not drawn)	inactive: 2.33%
CC1=NOC2(CCN(C(=O)c3ccccc3)CC2)C1	inactive: 0.0866% [at 57.5 µM]
O=C1CCC(CCC(=O)N2CCC(c3ccc(F)cc3)C2)(Cc2ccc3ccccc3c2)N1 (stereo not drawn)	inactive: -2.29%
Cc1ccccc1CN1Cc2nc(-c3ccccc3)ccc2OCC1=O	inactive: 2.8% [at 57.5 µM]
CN1CCN(c2nc3c(c(=O)[nH]2)CCN(Cc2cn[nH]c2-c2ccc(F)cc2)CC3)CC1	inactive: 0.562%
CC(C)NC(=O)N1CC2ON=C(C(=O)N3CCOCC3)C2C1 (stereo not drawn)	inactive: -4.63%
CC1(CNC(=O)c2n[nH]c3ccccc23)CCOCC1	inactive: -3.02%
Cc1ccc(CN2C[C@]34C=C[C@H](O3)C(C(=O)N(C)Cc3ccsc3)C4C2=O)cc1C (stereo partly drawn)	inactive: 7.02%
COc1ccc2cc(C(=O)N3CC4CC(C3)[C@H]3CCCC(=O)N3C4)[nH]c2c1 (stereo partly drawn)	inactive: 6.69%

Compound	activity % (negative = inhibition)
O=C1CCC2(CCN1Cc1ccccc1)CCN(C(=O)c1ccccc1F)CC2	inactive: -3.97%
CCCC(C)c1c(-c2ccccc2)ncn1CCNC(C)=O (stereo not drawn)	inactive: -12.7%
CNC(=O)c1cc(C)nc2onc(C3CCN(C(=O)C4CCCC4)CC3)c12	inactive: 44.3%
O=C1[C@@H]2C[C@@H](CN2Cc2ccc3c(c2)OCO3)Oc2ccccc2N1CC1CC1	inactive: -0.153% [at 57.5 µM]
O=C(c1cc(-c2ccsc2)c2nncn2n1)N1CCN(Cc2ccccc2)CC1	inactive: 5%
Cc1sc2ccn(CC(C)C)c(=O)c2c1C(=O)N1CCCCC1	inactive: 15.1%
CCc1cccc2c(C(CC(=O)N3CCCC3)c3cccc([N+](=O)[O-])c3)c[nH]c12 (stereo not drawn)	inactive: 12.5%
O=C(NCc1ccc(Cl)nc1)c1cn2c(n1)CN(C(=O)c1cccnc1)CC2	inactive: 0.44%
CCNc1ncc(C(=O)N[C@H](c2cnn(C)c2)C2CC(O)C2)cn1 (stereo partly drawn)	inactive: 0.953%
Cn1cc(CCNC(=O)c2ccc3oc(-c4cccc(F)c4)nc3c2)cn1	inactive: -1.23%
COc1cccc(N2C(=O)NC(=NC3CCCC3)C23CCN([S+](=O)([O-])c2cccs2)C3)c1 (stereo not drawn)	inactive: 0.0013%
CC(C)c1nc2c(NC(=O)Nc3cccc(Cl)c3)cccn2n1	inactive: -3.16%
O=C(NCC1CC1)C1CN(Cc2ccccc2)C(=O)N1 (stereo not drawn)	inactive: 59.1% [at 57.5 µM]
COc1ccc(-c2nc3c(c(=O)[nH]2)CCN(C(=O)CSc2ccccc2)C3)cc1	inactive: 7.61%
Cc1nnc2ccc(N3CCC(NC(=O)C(C)C)CC3)nn12	inactive: 12.7% [at 57.5 µM]
O=C(COc1ccc(-c2nnc3n2CCCC3)cc1)NCc1ccccc1Br	inactive: 4.26%
O=C(CCn1cncn1)N1CCc2ncnc(N3CC=CC3)c2CC1	inactive: -0.0366%
COc1ccc(CN2CC3(CCN(S(=O)(=O)c4c(C)nn(C)c4C)CC3)C2=O)cc1	inactive: 0.469%
CCN1C(=O)CN(C(=O)CC(C)C)CC12CCOCC2	inactive: 5.72%
O=C(C1CCN([S+](=O)([O-])c2cccs2)C1)N1CCC(c2nc3ncccc3[nH]2)CC1 (stereo not drawn)	inactive: 0.749%
O=C(NCc1nnc2c(-c3nc(C4CC4)no3)cccn12)C1CC1	inactive: 2.02%
Cc1nnc(-c2cc(-c3ccsc3)ccn2)n1-c1ccccc1	inactive: 20.3% [at 57.5 µM]

Compound	activity % (negative = inhibition)
CCNC(=O)N1CC(C(=O)NCc2ccco2)CC(c2ccc(OC)c(OC)c2)C1 (stereo not drawn)	inactive: 0.709%
COc1ccccc1CN[C@H]1[C@H](O)[C@@H](N2CCN(c3ccccc3OC)CC2)[C@@H]2OC[C@H]1O2	inactive: -5.23%
COc1cccc(C(C)N(C)Cc2nc(-c3cccs3)no2)c1 (stereo not drawn)	inactive: -5.01%
c1cncc(CN2CC(N3CCc4ccccc43)C2)c1	inactive: 3.81% [at 57.5 µM]
COCCCn1c(C)cc(C(=O)N[C@@H]2CN(C)C[C@H]2CN(C)C)c1C	inactive: 2.71%
COc1ccc(-c2ccc3nc(-c4cccc(F)c4)oc3c2)c(OC)c1OC	inactive: 7.5%
Cc1cccc(OC2(C(=O)O)CCN(c3cncc(C(N)=O)n3)CC2)c1	inactive: 1.97%
CC(C)CCN(C1CCOCC1)C1CCN(Cc2cccnc2)CC1	inactive: 9.22%
CNc1nc(C(=O)N2CCc3nc(-c4ccccc4)[nH]c3C2)cs1	inactive: 13.6%
Cc1noc(C)c1C(=O)N(C)C1CCc2nnc(C)n2CC1 (stereo not drawn)	inactive: -6.56%
CNC(=O)[C@@H]1CCCC[C@@H]1C(=O)N1CCn2nc(Cc3ccccc3)cc2C1	inactive: 5.96%
COc1ccc(CCNC(=O)c2c(C)noc2-c2cccs2)cc1OC	inactive: 20.6%
O=C(c1nccc2ccccc12)N1CCC2(CC1)CC(O)CCO2 (stereo not drawn)	inactive: 2.48%
CC(C)NS(=O)(=O)c1ccc2c(c1)nc(-c1ccc(CO)o1)n2C(C)C	inactive: 34.2%
O=C1CC2(CCN(CC3CCCCC3)CC2)Oc2ccccc2N1c1ccccc1	inactive: 15.1%
O=C(CCC1CCCN(Cc2ccc(-c3ccccc3)cc2)C1)N1CCOCC1 (stereo not drawn)	inactive: -0.619%
COCCN1CC2CN(C(=O)c3ccc(Cc4c(C)noc4C)o3)CC(C1)O2	inactive: 24.8%
COCC(=O)N[C@H]1C[C@@H](CO)N(Cc2ccc(Br)o2)C1	inactive: 7.75%
O=C(c1cccc(OC2CN(C3CCCCCC3)C2)c1)N1CCCC1	inactive: 14.1%
CC(C)NC(=O)N1CCNC[C@@H]1C(=O)N[C@@H](CC1CCCCC1)C(N)=O	inactive: 2.75% [at 57.5 µM]
C=CCC1(C(=O)O)CCCN(C(=O)c2cnn3c2CCCC3)C1 (stereo not drawn)	inactive: 3.76%
CCCc1nn(-c2cccc(C)c2)c(=O)n1CC(=O)NCc1ccc(C)o1	inactive: -1.66%

From PubChem BioAssay AID1794845 (National Center for Advancing Translational Sciences (NCATS), 2023)
